Laboratory results taken from article PMC6137978.
These are yes or no findings as the source states them, for the method shown. In cells and extracts the contact can be indirect. Binding can be weak; no strength is given. For some of these results: Where a sequence is shown, tags or fusion partners need not be part of it.

Sequences of proteins named here, by UniProt entry; tags and fusion partners are left off. A change or cut given only in a name is not applied to a line headed by its entry.
UniProt Q5NB25: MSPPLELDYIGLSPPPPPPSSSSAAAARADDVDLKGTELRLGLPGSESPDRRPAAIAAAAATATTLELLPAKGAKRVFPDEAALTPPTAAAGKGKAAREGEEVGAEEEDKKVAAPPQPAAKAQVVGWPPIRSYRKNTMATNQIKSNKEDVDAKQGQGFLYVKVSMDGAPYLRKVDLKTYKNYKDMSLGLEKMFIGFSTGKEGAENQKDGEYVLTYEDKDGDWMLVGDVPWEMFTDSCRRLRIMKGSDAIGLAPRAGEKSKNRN
UniProt Q75GB1: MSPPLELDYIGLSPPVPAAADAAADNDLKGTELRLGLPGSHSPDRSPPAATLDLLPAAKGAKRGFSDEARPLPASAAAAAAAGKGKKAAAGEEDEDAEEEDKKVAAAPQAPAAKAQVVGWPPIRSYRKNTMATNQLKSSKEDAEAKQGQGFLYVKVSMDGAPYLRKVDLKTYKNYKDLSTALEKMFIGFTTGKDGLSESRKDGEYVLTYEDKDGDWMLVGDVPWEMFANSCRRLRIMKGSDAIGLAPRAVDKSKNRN

Experiments:
[1] = target: T1, HF-Gnp4 (rice (Oryza sativa)) (UniProt G3XKQ9); assay: co-IP; HF-Gnp4 with Myc-tagged OsIAA3 or OsIAA17 in tobacco leaves; as in Zhang et al., 2017
T1 sequence: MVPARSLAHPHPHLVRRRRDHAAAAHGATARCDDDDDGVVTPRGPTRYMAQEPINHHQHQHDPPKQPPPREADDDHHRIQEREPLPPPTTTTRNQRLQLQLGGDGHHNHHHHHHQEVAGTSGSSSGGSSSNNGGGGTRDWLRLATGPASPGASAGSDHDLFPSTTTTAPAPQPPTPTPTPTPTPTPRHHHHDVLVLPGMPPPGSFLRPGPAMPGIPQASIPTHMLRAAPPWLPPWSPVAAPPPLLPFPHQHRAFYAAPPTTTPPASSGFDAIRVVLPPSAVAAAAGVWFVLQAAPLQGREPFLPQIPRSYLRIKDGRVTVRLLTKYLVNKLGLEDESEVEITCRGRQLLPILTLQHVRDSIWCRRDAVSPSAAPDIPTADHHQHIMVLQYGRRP

[2] = target: T2, Gnp4-YFP^C (rice (Oryza sativa)) (UniProt G3XKQ9); assay: split reporter; BiFC; Gnp4-YFP^C with YFP^N fusions, transient expression in N. benthamiana leaf epidermal cells, confocal microscopy 3 d after infiltration
T2 sequence: T1 sequence

| Substance | binding [1] | binding [2] |
| --- | --- | --- |
| OsIAA3-Myc (from UniProt Q5NB25) | binds |  |
| OsIAA3-YFP^N (from UniProt Q5NB25) |  | binds |
| OsIAA17-Myc (from UniProt Q75GB1) | binds |  |
| OsIAA17-YFP^N (from UniProt Q75GB1) |  | binds |
